Measurements reported in PMC3573893.
These are yes or no findings as the source states them, for the method shown. Binding seen in cells or lysates may run through a third protein. Some entries that bind do so weakly or less than the wild type.

Sequences of proteins named here, by UniProt entry; tags and fusion partners are left off. A change or cut given only in a name is not applied to a line headed by its entry. Residues count along the entry.
UniProt P49582, residues 23-502: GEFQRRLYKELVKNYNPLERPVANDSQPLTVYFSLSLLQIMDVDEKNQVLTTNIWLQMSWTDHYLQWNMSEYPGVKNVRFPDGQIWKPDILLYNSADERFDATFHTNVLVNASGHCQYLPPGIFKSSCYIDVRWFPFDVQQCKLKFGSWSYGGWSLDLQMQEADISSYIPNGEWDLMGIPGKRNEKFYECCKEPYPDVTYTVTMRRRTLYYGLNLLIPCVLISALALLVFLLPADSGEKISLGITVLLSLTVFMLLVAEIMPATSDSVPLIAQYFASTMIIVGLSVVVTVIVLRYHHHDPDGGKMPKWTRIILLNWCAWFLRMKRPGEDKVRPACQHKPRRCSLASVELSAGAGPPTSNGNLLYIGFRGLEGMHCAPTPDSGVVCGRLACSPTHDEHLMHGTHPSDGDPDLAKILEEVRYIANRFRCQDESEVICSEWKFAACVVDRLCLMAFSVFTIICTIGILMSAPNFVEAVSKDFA
UniProt Q9ERK7: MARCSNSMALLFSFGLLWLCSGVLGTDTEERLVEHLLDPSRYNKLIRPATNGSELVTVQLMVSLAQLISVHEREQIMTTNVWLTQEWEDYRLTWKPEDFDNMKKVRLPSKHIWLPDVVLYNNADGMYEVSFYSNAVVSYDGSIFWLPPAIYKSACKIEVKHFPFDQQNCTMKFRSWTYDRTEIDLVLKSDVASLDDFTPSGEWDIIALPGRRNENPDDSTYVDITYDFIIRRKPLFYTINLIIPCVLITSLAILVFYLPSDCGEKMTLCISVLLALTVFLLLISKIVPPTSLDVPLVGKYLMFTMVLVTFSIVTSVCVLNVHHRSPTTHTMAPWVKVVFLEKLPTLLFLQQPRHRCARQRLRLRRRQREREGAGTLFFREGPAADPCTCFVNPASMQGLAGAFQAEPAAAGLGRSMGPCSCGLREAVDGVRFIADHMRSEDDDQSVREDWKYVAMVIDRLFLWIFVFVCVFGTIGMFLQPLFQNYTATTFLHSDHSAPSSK

Molecular target: nicotinic acetylcholine receptor α7 subunit (mouse (endogenous in hippocampus and VDB tissue)) (UniProt P49582)
Test: co-IP; detergent extracts (1% Triton X-100 lysis buffer) of wild type mouse hippocampus CA1 or VDB; IP with rabbit anti-α7 antiserum H302 at 4°C overnight, protein A/G-Sepharose; immunoblot with rat anti-β2 mAb270; β2 knockout hippocampus as control

nicotinic acetylcholine receptor β2 subunit (from UniProt Q9ERK7 26-501)
binding: binds
